Experimental data: PubChem BioAssay AID2685 (National Center for Advancing Translational Sciences (NCATS), 2010)
Some of the results follow. The main result of the screen is listed elsewhere. These columns were measured beside it and carry no call. Compounds called inactive in the main read-out are mostly missing here. Words in brackets tell the shape of the fitted curve; partial curves, single points and poor fits give uncertain potencies.

Assay: qHTS Assay for Lipid Storage Modulators in Drosophila S3 Cells;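 on cell number change: cells counted by Cell Tracker Red CMTPX staining in the red channel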
Details: BODIPY lipid droplet fluorescence, 18-24 h; for cell number change: measured here: cell count max response, cells fed with added oleic acid
In short: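 Drosophila S3 cells loaded with oleic acid (400 uM, as added) and compounds at several concentrations; lipid droplets imaged by 488-nm laser-scanning cytometry, 500–530 nm intensity and object ratio to cell channel. Percent activity normalized to 20 uM Triacsin C.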

[1] = measured here: lipid fluorescence (Fed channel) AC50, cells fed with added oleic acid
[2] = measured here: cell number channel AC50, cells fed with added oleic acid

Row | SMILES | cell number change [%] | AC50 [1] | AC50 [2]
1 | COc1ccc(CNCC(=O)Nc2sccc2C#N)cc1 | 12.4 | 4.11 µM [falling, single point] | –
2 | Cc1ccnc(NC(=O)c2cccc(S(=O)(=O)N3CCN(c4ccc(F)cc4)CC3)c2)c1 | 16.8 | 8.2 µM [rising, partial curve] | –
3 | CC(C)c1ccccc1NC(=S)N1CCN(S(=O)(=O)c2cccs2)CC1 | – | – | 0.00461 µM [falling, full curve, poor fit]
4 | COC(=O)CNC(=O)CN1c2cccc3cccc(c23)S1(=O)=O | -6.7 | – | –
5 | O=C1CCCC/C1=C/NCc1ccc(F)cc1 | 14.6 | 0.517 µM [falling, single point] | –
6 | CC1CCC/C(=N\NC(=O)c2ccncc2)C1 (stereo unspecified) | -13.8 | 32.6 µM [falling, partial curve, poor fit] | –
7 | COC(=O)c1ccc(CNC(=O)COC(=O)C2CCC(C(C)(C)C)CC2)cc1 (stereo unspecified) | 5.71 | 0.651 µM [rising, full curve] | 0.116 µM [rising, full curve, poor fit]
8 | CC(=O)Nc1cc(C(=O)OCC(=O)c2ccc(C)cc2)ccc1C | 12.4 | 0.651 µM [rising, partial curve] | –
9 | COc1ccc(CNC(=O)CN(C(=O)c2csnn2)c2ccc(C(C)=O)cc2)cc1 | -1.28 | 6.51 µM [rising, partial curve] | –
10 | O=C(Nc1ccc(Cl)cc1)Nc1ccccn1 | -19.8 | 6.51 µM [falling, single point] | –
11 | O=C(O)c1ccccc1SCC(=O)N1CCc2ccccc21 | -107 | – | –
12 | O=C(Cn1nnc2ccccc2c1=O)Nc1ccc(S(=O)(=O)N2CCOCC2)cc1 | – | – | 0.164 µM [falling, full curve]
13 | O=C(NC1CC1)C1CCN(C(=O)c2ccc(Cl)cc2)CC1 | 16.4 | – | –
14 | CS(=O)(=O)c1ccc(Cl)c(NC(=O)COC(=O)c2ccc(-n3cnnn3)cc2)c1 | -31 | 29.1 µM [falling, single point] | 18.4 µM [falling, single point]
15 | Cc1cccc(Oc2cc(NC(=O)c3ccccc3)cc([N+](=O)[O-])c2)c1 | 11 | – | –
16 | Cc1ccc(CSCC2Nc3ccc(C(=O)N4CCN(c5ccc(F)cc5)CC4)cc3NC2=O)cc1 (stereo unspecified) | -1.83 | – | –
17 | O=C(CNC(=O)c1ccco1)NCC(=O)OCc1ccccc1Cl | -2.63 | 2.51 µM [falling, partial curve] | –
18 | O=C(Nc1ccc(Cl)cn1)c1ccc(COc2ccccc2Br)o1 | -4.44 | 0.461 µM [rising, full curve, poor fit] | 0.731 µM [rising, single point]
19 | CC(=O)N1N=C(c2ccccc2)CC1c1ccc2c(c1)OCO2 (stereo unspecified) | 8.66 | 1.46 µM [rising, full curve, poor fit] | –
20 | Cc1cc2nnc(SCCCCN3C(=O)c4ccccc4C3=O)n2c2ccccc12 | – | 29.1 µM [rising, single point] | –
21 | Cc1cc(-c2csc(Nc3ccccn3)n2)ccc1F | -14.5 | – | –

From no. 7 to 10, as listed above:
Row | SMILES | cell number change [%] | AC50 [1] | AC50 [2]
7 | COC(=O)c1ccc(CNC(=O)COC(=O)C2CCC(C(C)(C)C)CC2)cc1 (stereo unspecified) | 5.71 | 0.651 µM [rising, full curve] | 0.116 µM [rising, full curve, poor fit]
8 | CC(=O)Nc1cc(C(=O)OCC(=O)c2ccc(C)cc2)ccc1C | 12.4 | 0.651 µM [rising, partial curve] | –
9 | COc1ccc(CNC(=O)CN(C(=O)c2csnn2)c2ccc(C(C)=O)cc2)cc1 | -1.28 | 6.51 µM [rising, partial curve] | –
10 | O=C(Nc1ccc(Cl)cc1)Nc1ccccn1 | -19.8 | 6.51 µM [falling, single point] | –

(list continues)

Row | SMILES | cell number change [%] | AC50 [1] | AC50 [2]
22 | Cc1nc([N+](=O)[O-])cn1CC(=O)c1ccc(Br)cc1 | 12.5 | 6.51 µM [rising, partial curve, poor fit] | –
23 | CCOC(=O)c1c(NC(=O)C2C3C=CC(C3)C2C(=O)O)sc2c1CCC(CC)C2 (stereo unspecified) | -33.6 | – | 25.9 µM [falling, single point]
24 | CCOC(=O)c1cc(-c2ccc(C)o2)n[nH]1 | 18.6 | – | –
25 | CCN(CC)C(=O)N1c2ccccc2C=Cc2ccccc21 | – | – | 1.46 µM [falling, partial curve]
26 | Nc1c(NCCN2CCOCC2)c2ccccc2oc1=O | 23.6 | – | –
27 | Cc1ccc(OCC(=O)Nc2cc(C(C)(C)C)on2)cc1C | 18.4 | 18.4 µM [falling, single point] | –
28 | O=C(CNc1cccc2ccccc12)N/N=C/c1ccc[nH]1 | 10.6 | 4.11 µM [rising, partial curve] | 1.84 µM [rising, single point]
29 | COc1cccc(OC)c1C(=O)NC(C)CCc1ccccc1 (stereo unspecified) | -1.82 | – | –
30 | CN(C)CCn1c2c(c(SCC(=O)Nc3ccc4c(c3)OCCO4)nc1=O)CCCC2 | – | – | 0.116 µM [falling, full curve, poor fit]
31 | O=C(OCC(=O)N1CCN(C(=O)c2ccco2)CC1)c1cc(-c2ccccc2)nc2ccccc12 | -27.8 | 29.1 µM [falling, single point] | 3.26 µM [falling, full curve, poor fit]
32 | CCS(=O)(=O)c1ncc(Cl)c(C(=O)Nc2ccc(S(=O)(=O)N3CCCC(C)C3)cc2)n1 (stereo unspecified) | – | 0.082 µM [falling, full curve, poor fit] | –
33 | Cc1cc(N2CCN(Cc3cn(C)nc3-c3ccccc3F)CC2)cc(C)n1 | -10.1 | – | –
34 | COc1cc(OC)cc(C(=O)NCC(=O)N2CCCCC2)c1 | -11.1 | – | –
35 | CCOc1ccc2[nH]c3nc(SCC(=O)OC(C)C)nnc3c2c1 | -26.5 | 0.58 µM [falling, partial curve, poor fit] | –
36 | CC(C)(C)C(=O)NC(NC(=O)C(C)(C)C)c1ccc([N+](=O)[O-])cc1 | – | 1.64 µM [rising, single point] | 2.31 µM [rising, partial curve]
37 | O=C(N/N=C/c1cc(Cl)ccc1O)c1ccncc1 | -1.75 | 0.146 µM [rising, full curve, poor fit] | –
38 | CS(=O)(=O)c1ccc2nc(NC(=O)C3C4C=CC(C4)C3C(=O)O)sc2c1 (stereo unspecified) | – | – | 6.51 µM [rising, single point]
39 | COc1ccc(CC(=O)OCC(=O)NC(=O)NC23CC4CC(CC(C4)C2)C3)cc1 | -77.1 | 0.411 µM [falling, full curve] | 14.6 µM [falling, partial curve, poor fit]
40 | CCCOc1ccc(/C(O)=C2/C(=O)C(=O)N(CCN(C)C)C2c2ccc(OC)c(OC)c2)cc1 (stereo unspecified) | -5.7 | 14.6 µM [falling, partial curve, poor fit] | –
41 | CCc1nc(SCC(=O)Nc2ccc(Br)cn2)n[nH]1 | 18.8 | 1.84 µM [rising, single point] | –
42 | CCn1c(=O)cc(SCC(=O)Nc2cccnc2)c2ccccc21 | – | 0.092 µM [rising, full curve, poor fit] | 0.103 µM [rising, full curve, poor fit]

Row | SMILES | cell number change [%] | AC50 [1] | AC50 [2]
43 | CCC1(c2ccccc2)NC(=O)N(CC(=O)Nc2cc(S(=O)(=O)N3CCCCC3)ccc2OC(C)C)C1=O (stereo unspecified) | 7.27 | – | –
44 | CC1(C)O[C@@H]2[C@H](O1)[C@@H](COS(=O)(=O)O)O[C@H]2n1cnc2c(=O)[nH]cnc21 | 5.16 | 7.31 µM [rising, partial curve, poor fit] | 3.26 µM [falling, partial curve, poor fit]
45 | CCOC(=O)c1nc(S(C)(=O)=O)ncc1Cl | -89.7 | 3.66 µM [falling, partial curve] | 8.2 µM [falling, partial curve]
46 | CCOc1ccc(-c2nonc2NC(=O)c2ccco2)cc1 | 4.62 | – | –
47 | CC1CC1C(=O)OCC(=O)NNC(=O)c1ccc([N+](=O)[O-])cc1 (stereo unspecified) | -11 | – | –
48 | CC(C)C(NC=C1C(=O)OC(C)(C)OC1=O)C(=O)O (stereo unspecified) | -6.49 | 0.13 µM [falling, full curve, poor fit] | –
49 | CCC1(C)Cc2c(sc3nc(SCC(=O)O)[nH]c(=O)c23)CO1 (stereo unspecified) | -110 | – | 29.1 µM [falling, single point]
50 | CCC(C)(C)NC(=O)CN(Cc1ccc(F)cc1)C(=O)CCC(=O)Nc1ccccn1 | 13.5 | 0.231 µM [falling, full curve, poor fit] | –
51 | O=C(Nc1cccnc1)C1CCC(CNS(=O)(=O)c2cccc3nsnc23)CC1 (stereo unspecified) | -7 | – | –
52 | N/C(=N\OC(=O)c1ccc2c(c1)OCO2)c1ccc(Br)cc1 | 6.78 | 0.13 µM [rising, full curve, poor fit] | –
53 | CN(C)CCCNCC(=O)c1c(-c2ccccc2)n(C)c2ccccc12 | -12.6 | 6.51 µM [falling, partial curve] | –
54 | COc1ccc(N=C(C)c2sc3ccccc3c2O)cc1 | -20 | 29.1 µM [falling, single point] | –
55 | Cc1cc(C)c(C#N)c(SCC(=O)Nc2nnc(-c3ccccc3)s2)n1 | 5.69 | 3.66 µM [rising, full curve] | –
56 | CN(C(=O)c1cc2n(n1)C(C(F)(F)F)CC(c1ccco1)N2)c1ccc(OC(F)(F)F)cc1 (stereo unspecified) | -45.2 | 1.84 µM [falling, partial curve] | 25.9 µM [falling, single point]
57 | CN(C)c1ccc(/C(=N\O)C(F)(F)F)cc1 | -57.4 | 25.9 µM [falling, partial curve] | 23.1 µM [falling, partial curve, poor fit]
58 | COc1cc(C(=O)Nc2ccc3c(c2)nc(C)n3C)cc(OC)c1OC | 18.4 | 29.1 µM [falling, single point] | –
59 | COc1ccc(Br)cc1/C=N/NC(=O)C[n+]1ccccc1 | 17.7 | – | –
60 | CCC(C(=O)N1CCN(c2ccccc2OC)CC1)c1ccccc1 (stereo unspecified) | 20.1 | 29.1 µM [rising, single point] | –
61 | O=C(NCCCN1CCOCC1)c1cccc(S(=O)(=O)N2CCOCC2)c1 | 2.34 | – | –
62 | COc1ccc2[nH]c3c(N4CCc5ccccc5C4)ncnc3c2c1 | -64.4 | 20.6 µM [falling, partial curve] | 16.4 µM [falling, partial curve, poor fit]
